The values that follow come from patent publication US20130023553A1, “PEGYLATED OPIOIDS WITH LOW POTENTIAL FOR ABUSE AND SIDE EFFECTS” (Nektar Therapeutics, priority 2010, published 2013).

A short description of one data set: in vivo. Particulars: rat, iv, 25 mg/kg.
The nature of data set [1]: In situ rat brain perfusion (rate of brain penetration, Kin). Particulars: following perfusion.

As for `CC(C)NCC(O)COc1ccc(CC(N)=O)cc1` (centres unmarked) [Atenolol, atenolol], the Kp at 1 h in “in vivo” stood at 0.11. Further, in data set [1], the “vascular space marked by atenolol” value is listed as ≤ 20 μL/g of brain tissue.
